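Growth of Mycobacterium tuberculosis over 3 days (7H9 medium with glucose and tyloxapol); the read-out is not stated. Compounds at 50 µM. Higher reads as more growth inhibition (inferred: compounds with an IC50 in retests scored well above the rest). Of about 69,000 compounds tested this way, about 760 (1.1%) reached 50% or more in at least one test.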

The filed quantity is “Percent Effect” (%).
The record does not define 0% and 100%; most values in the screen are far below 50% and negative numbers occur (in some assays of this library far below -100).
This is an unselected part of the compounds tested.
Two or more numbers in one place are separate tests of the same structure; such repeats can differ widely.

CC(Cn1ccnc1)NC(=O)NCc1ccccn1 (configuration not stated) read 9.89%.
CCOc1cc(C)nc(N2CCN(C(=O)c3cscn3)CC2)n1 read 4.39% & -25.41%.
[H][C@]12CC[C@]([H])(CN(C(=O)c3ccc(N(CC)CC)cc3)C1)N(CCOC)C2 read 27.43%.
Cn1ccc(C(=O)NC2CCC23CCN(C(=O)c2ccccn2)CC3)c1 (configuration not stated) read 9.033%.
COc1ccnc(N2CCc3ccc(OC(F)F)cc3C2)n1 read 20.01%.
COc1ccc(F)cc1C(C(=O)O)N1CCCN(C2CCCC2)CC1 (configuration not stated) read 22.86%.
Cc1nc(C)n(CC2CCCN(CCC(=O)Nc3cc(C)on3)C2)n1 (configuration not stated) read 11.52%.
Cc1cc2occ(CC(=O)N3CCC4(CCCN(C)C4=O)C3)c2cc1Cl (configuration not stated) read -20.63%.
Cn1cccc1-c1cc(C(=O)N2CCCC2c2nccs2)[nH]n1 (configuration not stated) read -2.242%.
CN(C)CCn1nc(C2CCN(S(=O)(=O)N(C)C)C2)c2cccnc21 (configuration not stated) read 8.157%.
COc1c(C)cnc(CN2CCOC(Cn3cc(C)cn3)C2)c1C (configuration not stated) read -14.07%.
[H][C@@]12COC[C@]1(CNS(C)(=O)=O)CN(C(=O)c1ccncn1)C2 read -11.63% & -12.92%.
Cc1ccc2ncn(C(C)Cn3cccn3)c(=O)c2c1 (configuration not stated) read -10.62%.
CCCn1ccnc1CN1CCC(O)(CN2CCCCC2)C1 (configuration not stated) read 3.843%.
CC(NC(=O)N(C)CCCOc1ccccc1)c1nncn1C (configuration not stated) read -21.57%.
Fc1ccccc1CC1CCN(Cc2ccccn2)CC1 read 18.82%.
CNC(=O)Cc1ccc(-n2ccnc2-c2cccc(C(=O)O)c2)cc1 read 22.15%.
CCn1cncc1CN1CCc2nc3sccc3c(=O)n2CC1 read -2.627%.
COc1ccnc(N2CCN(CC(=O)N3CCOC(C)C3)CC2)n1 (configuration not stated) read 5.528%.
CCCc1cc(C(=O)N2Cc3cnc(C(C)(C)C)nc3C2)ccn1 read 11.24%.
O=C(O)C(F)(F)F.O=C(O)C(F)(F)F.[H][C@@]12CO[C@@H](CN3CCOCC3)[C@]1([H])CCN(Cc1ccsc1)C2 read -1.341%.
CC1CCN(C(=O)CSc2nc3c(cnn3CCO)c(=O)[nH]2)CC1 read -34.22%.
Cc1cc(CN(C)C(=O)CN2CC3(CCNCC3)OC2=O)no1 read -3.422%.
Cc1cc(C(=O)NC2CCN(c3nnc(C)c(C)c3C#N)CC2)no1 read -16.95%.
O=C(C1=CCCC1)N1CCC2(CC1)CC(Oc1cccnc1)CO2.O=C(O)C(F)(F)F (configuration not stated) read 12.59%.
COc1cc(CNc2cc(-c3ccoc3C)nn2CCO)ccc1F read 4.022% & 1.011%.
COCCNC(=O)c1cc(F)ccc1NS(C)(=O)=O read 21.17%.
CCc1noc(CN(C)C(=O)COc2cccc(Cl)c2C)n1 read 0.04084%.
CN(C)C(CNC(=O)c1nc(N2CCCC2)ncc1Cl)c1ccco1 (configuration not stated) read 17.02%.
O=C(NCCNS(=O)(=O)c1cccc(Cl)c1)C1CCCO1 (configuration not stated) read 2.238% & -3.172%.
CN1CCN(c2ccc(F)cc2NC(=O)NCc2ccon2)CC1 read 22.65%.
Cc1cccc(C(=O)NCCS(=O)(=O)Cc2ccccc2)c1 read -13.42%.
Cn1cc(-c2nc(C(=O)N3CCCC3c3cnn(C)c3)cs2)cn1 (configuration not stated) read -2.64% & 1.578%.
CC(C)c1nnc2n1CCN(C(=O)c1ccc(N(C)C)nn1)C2 read -2.77%.
Cn1cnc2c1CCN(Cc1cccc(OCC(N)=O)c1)C2 read -5.94%.
CC(C)(C)NC(=O)COc1ccc(CNCc2ccccn2)cc1 read -29.15%.
Cc1cc(C(=O)N(CC(=O)O)CC(C)C)ccc1F read -19.64%.
[H][C@@]12COC[C@@H](Cc3nc(C)no3)[C@]1([H])CN(c1cc(OC)ncn1)C2 read 34.5%.
Cc1ccccc1CSc1nc(N)cc(N2C[C@H](O)[C@@H](N(C)C)C2)n1 read 14.37%.
CCOC1COC2(CCN(Cc3ccc4c(c3)OCO4)CC2)C1 (configuration not stated) read 13.87%.
O=C(c1cccc(Oc2ccccc2)c1)N1CCCC(O)(CO)CC1 (configuration not stated) read -32.09%.

For reference, 3 entries once more:

SMILES	Percent Effect
Cn1cc(-c2nc(C(=O)N3CCCC3c3cnn(C)c3)cs2)cn1 (configuration not stated)	-2.64 & 1.578
COCCNC(=O)c1cc(F)ccc1NS(C)(=O)=O	21.17
Cn1cccc1-c1cc(C(=O)N2CCCC2c2nccs2)[nH]n1 (configuration not stated)	-2.242

The values are deposited in ChEMBL (CHEMBL3988442, “University of Dundee, Small-Polar-MMV Screening Library” (2021)).